In patent US20170066829A1 (published 2017) one finds binding data, which are given here for 1 molecule.

Test [1] concerns the target human ERBB2 (ELISA antigen of FIG. 3, poly-histidine tagged) (human) (UniProt P04626). Briefly: ELISA, coated antigen, HRP-conjugated antibody, OD 450 nm. A general note: An ELISA detects its analyte on a solid surface through an enzyme-linked reagent.
Test [2] has as its target HER2 domains I+II (His-tagged, supernatant of transfected CHO cells) (UniProt P04626). In words: sandwich ELISA: antibody coated, domain construct supernatant, HRP anti-His-Tag detection.

Results are given in words; binding and its absence hold for the method and conditions named. Some results given as binding are weak or reduced against the parent protein; the word gives no strength.

B1: Hersintuzumab (antibody, V domains shown)
VH: EVKLVESGGGLVKPGGSLRLSCATSGFSFSSYYMYWVRQAPGKRLEWVAYISSGSEIYYSDSVKGRFTISRDSAKNTLYLQMNSLRAEDTAVYYCARLGDDGMDVWGQGTTVTVSS
VL: DIVMTQSPSSLSASVGDRVTITCRASQNVRTAVAWFQQKPGKAPKALIYLASNRHTGVPDRFTGSGSGTEFTLTISNLQPEDFATYFCLQHNSYPLTFGGGTKVEIK
notes: also called humanized anti-HER2 antibody; humanized monoclonal anti-HER2 antibody
For B1, the binding result in test [1] and in test [2] was “binds” throughout.
